In PubChem BioAssay AID1347423 (Functional Genomics Laboratory (NCATS/FGL), 2020):
Hit rate of the full screen: of about 52,000 sequences, about 210 (0.4%) were called active.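 Rule for the calls: active = gene whose silencing raises cell survival under the drug, median off-target-corrected z-score across its silencing RNAs 2 or more; inactive = the rest.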 Some of the results follow.

Experiment: Resistance to Poly (ADP-Ribose) Polymerase inhibitor: Gene Identification via Genome-wide siRNA Screen
Conditions: mouse BRCA2 R2336H ES cells, olaparib, CellTiter-Glo viability; hits give high values
Outline: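 Genome-wide siRNA screen (3 siRNAs/gene, 20 nM) in mouse ES cells carrying hypomorphic BRCA2 R2336H; olaparib 500 nM added 48 h post-transfection, CellTiter-Glo viability 72 h later. Normalized to plate-median negative control; MAD z-scores, gene median, seed-adjusted.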

**Q.** With “GCCUUUAUCUACCGCCCAGTT against 4932442K08Rik” as the sequence, how does the z-score read?
**A.** inactive: 0.56

**Q.** For GCUAAACGAGUUAUUGGUGTT against AI314180, which z-score is on record?
**A.** inactive: -1

**Q.** Which z-score does the source give for “GGACCCAUUGGUCAUCAUATT against 4732473B16Rik” here?
**A.** inactive: -0.785

**Q.** Which z-score does the source give for CCGUAGUCCUGAAGAUUCCTT against Olfr427 here?
**A.** inactive: 1.73

**Q.** Which z-score does the source give for GACCAUCCUACUACUUAUGTT against V1rc8 here?
**A.** inactive: 0.509

**Q.** For GGGCAUAUGGAGAACACAUTT against Dmrt1, which z-score is on record?
**A.** inactive: 0.262

**Q.** With GGUGUACCAAGUGUUGAAGTT against Pold4 as the sequence, how does the z-score read?
**A.** inactive: 0.761

**Q.** Which z-score does the source give for CCUAGGGCUUUAGCUCUGATT against Msc here?
**A.** inactive: -1.29

**Q.** Which z-score does the source give for “CCUUGGUGGCCCAUUUAGCTT against 9830107B12” here?
**A.** inactive: 0.43

**Q.** For “CCAAUUAUCCCGGGACCUATT against 1700030B21Rik”, which z-score is on record?
**A.** inactive: -2.04

**Q.** For GGAGAAGUUUGGGAAGAAATT against Gys2, which z-score is on record?
**A.** inactive: 1.63

**Q.** With GGGAAAGACUGGAAAUCUUTT against Tmod3 as the sequence, how does the z-score read?
**A.** inactive: 2.14

**Q.** For CCGGACCAUCUUCGACAGUTT against Tmepai, which z-score is on record?
**A.** inactive: -1.07

**Q.** Which z-score does the source give for CCGAUGGGAAAAUCCAGUUTT against AB114826 here?
**A.** inactive: -3.09

**Q.** Which z-score does the source give for GGAGCUGCUCCAGUUGAUATT against Col11a1 here?
**A.** inactive: 0.826

**Q.** Which z-score does the source give for GCUGAAAUGGAGUAUUUGATT against Nf2 here?
**A.** inactive: 0.552

**Q.** Which z-score does the source give for “GCGAUCUACGCUUUCAAAGTT against B930096L08Rik” here?
**A.** inactive: -0.0873

**Q.** With GCUCCACAAGAUGUAAAGGTT against Il21 as the sequence, how does the z-score read?
**A.** inactive: -1.83

**Q.** For GCACCUACGUUUGUUGGAUTT against Clasp2, which z-score is on record?
**A.** inactive: -1.32

**Q.** For CCAGAAAUAAAAGACAUCGTT against BC038311, which z-score is on record?
**A.** inactive: 0.368

**Q.** For GGGAUAUCCUACCAGGUCATT against Ppard, which z-score is on record?
**A.** inactive: -0.314

**Q.** For GCAUUCAGUUGGGACAGUATT against Hsh2d, which z-score is on record?
**A.** inactive: -1.15

**Q.** For GCGCAGGUUGGAUGAAUGUTT against Psme3, which z-score is on record?
**A.** inactive: -1.28

**Q.** For CGACCUGCUCUCAUAGCUUTT against Sycn, which z-score is on record?
**A.** inactive: -0.71

**Q.** For GGAGGAAGAAACAAAAAAATT against Nolc1, which z-score is on record?
**A.** inactive: 0.664

**Q.** For GUUUCAUGAGUGCCUCCAUTT against Olfr1446, which z-score is on record?
**A.** inactive: 0.962

**Q.** Which z-score does the source give for CAAGAAAAUGCUCUCUGUUTT against Gm1553 here?
**A.** inactive: -0.944

**Q.** Which z-score does the source give for GCAAUGUGCACGAUGAUGATT against Pik3cg here?
**A.** inactive: -2.47

**Q.** For GGCUGAUGAUACUUAAACATT against V1rg8, which z-score is on record?
**A.** inactive: -2.45

**Q.** For GCUUCCACAUAUUUUUUGCTT against Olfr1467, which z-score is on record?
**A.** inactive: -0.557

**Q.** With GGCAGCUAAACUGUGUUAUTT against Tex11 as the sequence, how does the z-score read?
**A.** inactive: -0.798

**Q.** With GGAGAGUGUAUCCUAUCUGTT against Snapc3 as the sequence, how does the z-score read?
**A.** inactive: -1.32

**Q.** For CCCUGGUAUCUUACAUCGATT against Zdhhc19, which z-score is on record?
**A.** inactive: -0.157

**Q.** Which z-score does the source give for “GGCAAAACAAAAACUCUACTT against 1700028P14Rik” here?
**A.** inactive: -0.601

**Q.** For GGAAAUGCCACCAUUGUUATT against Olfr514, which z-score is on record?
**A.** inactive: 0.0719

**Q.** For CCCUAACAUUGAGAUGAUUTT against Peg10, which z-score is on record?
**A.** inactive: 1.74

**Q.** Which z-score does the source give for GGCCCAGUCUUCUCAAAAATT against Lass2 here?
**A.** inactive: -0.22

**Q.** With “GGAUGAAGACAGUCAAAUGTT against 2310061G07Rik” as the sequence, how does the z-score read?
**A.** inactive: -0.65

**Q.** With GGAUGAAGCGAAUCACAACTT against Atp1b4 as the sequence, how does the z-score read?
**A.** inactive: -0.734

**Q.** With GGGAGCUACGUUCAGAAGUTT against Gckr as the sequence, how does the z-score read?
**A.** inactive: -0.157

**Q.** With GGAGGAAACACGUCUGAAUTT against Slc4a9 as the sequence, how does the z-score read?
**A.** inactive: 0.554

**Q.** Which z-score does the source give for GGCAGCUAGAGAGAAUCCUTT against Akr1c12 here?
**A.** inactive: -0.435

**Q.** Which z-score does the source give for “GGAUGACAUGAAAAUGGAATT against 1190005P17Rik” here?
**A.** inactive: 0.183

**Q.** Which z-score does the source give for GGCUUUACCGGAUCUUUUGTT against Krtap15 here?
**A.** inactive: 0.313

**Q.** Which z-score does the source give for “GGUUAUGAUCGGCAUCGCUTT against 1700063I17Rik” here?
**A.** inactive: -0.431

**Q.** With “GCAGAUCGUGCGGAUCUUGTT against 4930556P03Rik” as the sequence, how does the z-score read?
**A.** inactive: -0.365

**Q.** For GCUGCCCUUCGAUUUCUGUTT against Olfr550, which z-score is on record?
**A.** inactive: 0.744

**Q.** Which z-score does the source give for GGCUCUAGGUACUUGUGGUTT against Olfr617 here?
**A.** inactive: 0.46

**Q.** For CAAAUUAUGAGUGAGAACCTT against Olfr340, which z-score is on record?
**A.** inactive: -1.17

**Q.** With CCAAGUUUGUUUCAGACGGTT against Btbd6 as the sequence, how does the z-score read?
**A.** inactive: 0.327

**Q.** With “GGUGAACAAUACGGCUGUGTT against D730040F13Rik” as the sequence, how does the z-score read?
**A.** inactive: -1.07

**Q.** Which z-score does the source give for GGAACUUCUGAACAUCAGCTT against Isp1 here?
**A.** inactive: 0.855
